PubChem BioAssay AID1508597, Cure First, 2020

Screen: 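Survival screen with siRNA in ovarian cancer cells derived from patients, with or without rucaparib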 (primary screen)
System: human ovarian carcinoma lines grown from tumours: OCI-P5x (papillary serous) and OCI-C5x (clear cell)
Reagent: siRNA pool against human genes, 1.25 pmol siRNA per well
Time to read-out: 72 h or 96 h, depending on the cell culture
Challenge: rucaparib 20 µM (about IC30) or vehicle, present until read-out
Read-out: 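ATP luminescence measured at 72 or 96 h according to the culture, then normalised and expressed as percent viability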
Reading the numbers: viability, normalised: higher = more viable cells remaining
Active means: 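a well counts as a hit if its normalised viability is under 80 percent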
Calls: active = viability under 80%; inactive = viability 80% or more
The deposit covers about 2,100 reagents; shown is an unselected part. 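Calls flag viability under 80% in either arm, not effects specific to rucaparib; the reference for percent is not stated.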 Some reagents were tested in more than one well and are listed for each. No sequences are given here. Not given: the 100% reference.

Target gene | rucaparib or vehicle | cell line | technical replicate | viability, normalised (%) | activity call
RPS6KC1 (ribosomal protein S6 kinase C1) | Rucaparib | OCI-C5x (clear cell) | 1 | 58.9 | active
RPS6KC1 (ribosomal protein S6 kinase C1) | Rucaparib | OCI-C5x (clear cell) | 2 | 67.6 | active
RPS6KC1 (ribosomal protein S6 kinase C1) | Rucaparib | OCI-C5x (clear cell) | 3 | 56 | active
RPS6KC1 (ribosomal protein S6 kinase C1) | Rucaparib | OCI-P5x (serous) | 1 | 83.4 | inactive
RPS6KC1 (ribosomal protein S6 kinase C1) | Rucaparib | OCI-P5x (serous) | 2 | 66 | active
RPS6KC1 (ribosomal protein S6 kinase C1) | Rucaparib | OCI-P5x (serous) | 3 | 83.3 | inactive
RPS6KC1 (ribosomal protein S6 kinase C1) | Vehicle | OCI-C5x (clear cell) | 1 | 56.5 | active
RPS6KC1 (ribosomal protein S6 kinase C1) | Vehicle | OCI-C5x (clear cell) | 2 | 71.4 | active
RPS6KC1 (ribosomal protein S6 kinase C1) | Vehicle | OCI-C5x (clear cell) | 3 | 59.7 | active
RPS6KC1 (ribosomal protein S6 kinase C1) | Vehicle | OCI-P5x (serous) | 1 | 69.5 | active
RPS6KC1 (ribosomal protein S6 kinase C1) | Vehicle | OCI-P5x (serous) | 2 | 62.8 | active
RPS6KC1 (ribosomal protein S6 kinase C1) | Vehicle | OCI-P5x (serous) | 3 | 72.5 | active

Next part; the last 2 above are carried over.
Target gene | rucaparib or vehicle | cell line | technical replicate | viability, normalised (%) | activity call
RPS6KC1 (ribosomal protein S6 kinase C1) | Vehicle | OCI-P5x (serous) | 2 | 62.8 | active
RPS6KC1 (ribosomal protein S6 kinase C1) | Vehicle | OCI-P5x (serous) | 3 | 72.5 | active
TRIM28 (tripartite motif containing 28) | Rucaparib | OCI-C5x (clear cell) | 1 | 55.3 | active
TRIM28 (tripartite motif containing 28) | Rucaparib | OCI-C5x (clear cell) | 1 | 41.9 | active
TRIM28 (tripartite motif containing 28) | Rucaparib | OCI-C5x (clear cell) | 2 | 66 | active
TRIM28 (tripartite motif containing 28) | Rucaparib | OCI-C5x (clear cell) | 2 | 44.3 | active
TRIM28 (tripartite motif containing 28) | Rucaparib | OCI-C5x (clear cell) | 3 | 53.3 | active
TRIM28 (tripartite motif containing 28) | Rucaparib | OCI-C5x (clear cell) | 3 | 33.7 | active
TRIM28 (tripartite motif containing 28) | Rucaparib | OCI-P5x (serous) | 1 | 98 | inactive
TRIM28 (tripartite motif containing 28) | Rucaparib | OCI-P5x (serous) | 1 | 63 | active
TRIM28 (tripartite motif containing 28) | Rucaparib | OCI-P5x (serous) | 2 | 57 | active
TRIM28 (tripartite motif containing 28) | Rucaparib | OCI-P5x (serous) | 2 | 105 | inactive
TRIM28 (tripartite motif containing 28) | Rucaparib | OCI-P5x (serous) | 3 | 103 | inactive
TRIM28 (tripartite motif containing 28) | Rucaparib | OCI-P5x (serous) | 3 | 50.3 | active
TRIM28 (tripartite motif containing 28) | Vehicle | OCI-C5x (clear cell) | 1 | 50 | active
TRIM28 (tripartite motif containing 28) | Vehicle | OCI-C5x (clear cell) | 1 | 49.8 | active
TRIM28 (tripartite motif containing 28) | Vehicle | OCI-C5x (clear cell) | 2 | 50.4 | active
TRIM28 (tripartite motif containing 28) | Vehicle | OCI-C5x (clear cell) | 2 | 36.1 | active
TRIM28 (tripartite motif containing 28) | Vehicle | OCI-C5x (clear cell) | 3 | 29.5 | active
TRIM28 (tripartite motif containing 28) | Vehicle | OCI-C5x (clear cell) | 3 | 63.4 | active
TRIM28 (tripartite motif containing 28) | Vehicle | OCI-P5x (serous) | 1 | 79.5 | active
TRIM28 (tripartite motif containing 28) | Vehicle | OCI-P5x (serous) | 1 | 70.8 | active
TRIM28 (tripartite motif containing 28) | Vehicle | OCI-P5x (serous) | 2 | 99.7 | inactive
TRIM28 (tripartite motif containing 28) | Vehicle | OCI-P5x (serous) | 2 | 87.4 | inactive
TRIM28 (tripartite motif containing 28) | Vehicle | OCI-P5x (serous) | 3 | 85.6 | inactive
TRIM28 (tripartite motif containing 28) | Vehicle | OCI-P5x (serous) | 3 | 69.5 | active
